Assay results from PubChem BioAssay AID248 (DTP/NCI, 2004).
The list shows only some results of the screen, not a fair sample: it gathers tests that were run many times, whatever their T/C, doses with no T/C, and many T/C values between a quarter and a half above the control. Further doses and runs are listed elsewhere. T/C: endpoint of the treated group in % of that of the vehicle group. Some doses have a count of surviving animals in place of a T/C: the source holds a T/C of zero for them, seemingly a mark for toxic or unscored doses. Some survivor counts are full or nearly so, which does not show that the dose was tolerated: the source hardly ever lists a survival T/C far under the control, and the zero likely stands for such cases as well. Survivors were counted at the toxicity check, usually on the fifth day, unless a day is given; later deaths do not show. Schedule codes are those of the source, read here as Q, the interval in days (D) or hours (H), X, the number of doses. Some schedules carry Z or #; the key to these is not given. Where survival is the endpoint, the PubChem record calls one and a half times the control and up active, and a quarter to a half above the control has no call in these data; cut-offs in other NCI protocols can differ.

Tested on: L1210 leukemia ip in BDF1 mice, survival T/C
Assay: NCI In Vivo Anticancer Drug Screen. Data for tumor model L1210 Leukemia (intraperitoneal) in B6D2F1 (BDF1) mice
Conditions: T/C endpoint: mean survival time, higher T/C = longer survival
[1] = dose: 200.0 mg/kg/injection, schedule: Q01DX001 (ip), vehicle: saline
[2] = dose: 400.0 mg/kg/injection, schedule: Q01DX009 (ip), vehicle: saline
[3] = dose: 400.0 mg/kg/injection, schedule: Q04DX003 (ip), vehicle: saline with Tween-80
[4] = dose: 400.0 mg/kg/injection, schedule: Q01DX001 (ip), vehicle: saline
[5] = dose: 200.0 mg/kg/injection, schedule: Q04DX003 (ip), vehicle: saline with Tween-80
[6] = dose: 300.0 mg/kg/injection, schedule: Q01DX001 (ip), vehicle: saline

In the case of C=C(C#N)C(F)(F)F, the survivor count (dose: 100.0 mg/kg/injection, schedule: Q01DX001 (ip), vehicle: saline with Tween-80) is reported as 0 of 6, the survivor count (dose: 200.0 mg/kg/injection, schedule: Q01DX001 (ip), vehicle: saline with Tween-80) is reported as 0 of 6 and the survivor count (dose: 400.0 mg/kg/injection, schedule: Q01DX001 (ip), vehicle: saline with Tween-80) is reported as 0 of 6.
With O=C(O)c1c(O)c2cc(Cl)ccc2oc1=O the survivor count [1] was 2 of 6.
For CC(=O)[O][Hg][c]1c(N)c(Cl)cc(C)c1F, the survivor count (dose: 40.0 mg/kg/injection, schedule: Q01DX001 (ip), vehicle: Klucel (hydroxypropylcellulose) (HPC)) was 0 of 6, the survivor count (dose: 100.0 mg/kg/injection, schedule: Q01DX001 (ip), vehicle: Klucel (hydroxypropylcellulose) (HPC)) was 0 of 6 and the survivor count (dose: 200.0 mg/kg/injection, schedule: Q01DX001 (ip), vehicle: Klucel (hydroxypropylcellulose) (HPC)) was 0 of 6. The survivor count (dose: 400.0 mg/kg/injection, schedule: Q01DX001 (ip), vehicle: Klucel (hydroxypropylcellulose) (HPC)) was 1 of 6.
CCN=C(NCC)c1ccc(NC(=O)Nc2ccc(NC(=O)Nc3ccc(C(=NCC)NCC)cc3)cc2)cc1 was tested, and the survivor count (dose: 14.0 mg/kg/injection, schedule: Q01DX Z (ip), vehicle: water) was 0 of 6, the survivor count (dose: 28.0 mg/kg/injection, schedule: Q01DX Z (ip), vehicle: water) was 0 of 6 and the survivor count (dose: 56.0 mg/kg/injection, schedule: Q01DX Z (ip), vehicle: water) was 0 of 6. For the same compound, the survivor count (dose: 112.0 mg/kg/injection, schedule: Q01DX Z (ip), vehicle: water) was 0 of 6.
For O=c1[nH]cncc1CCC1OCCO1, the survivor count [2] was 0 of 6.
With Nc1nc(N)c2nc(CNCCc3ccccc3)cnc2n1 the survivor count (dose: 80.0 mg/kg/injection, schedule: Q01DX009 (ip), vehicle: Klucel (hydroxypropylcellulose) (HPC)) was 1 of 5.
With CCCCc1ccc(-n2cnc3c(=O)[nH]c(N)nc32)cc1 the survivor count [3] was 6 of 6.
In the case of Cc1nc(N)nc(N)c1Cc1ccc(N=[N+]=[N-])cc1, the survivor count (dose: 100.0 mg/kg/injection, schedule: Q04DX002 (ip), vehicle: saline with Tween-80) is reported as 1 of 3.
In the case of Cc1ccnc(NS(=O)(=O)c2ccc(N=Nc3cc(N=Nc4ccccc4)c(N)nc3N)cc2)n1, the survivor count (dose: 400.0 mg/kg/injection, schedule: Q01DX001 (ip), vehicle: carboxymethylcellulose (CMC)) is reported as 2 of 4.
In the case of COc1ccc(CN2CCCN(Cc3ccc(OC)cc3)C2c2ccc(OC)cc2)cc1, the survivor count (dose: 100.0 mg/kg/injection, schedule: Q01DX009 (ip), vehicle: saline with Tween-80) is reported as 6 of 6 and the survivor count (dose: 400.0 mg/kg/injection, schedule: Q01DX009 (ip), vehicle: saline with Tween-80) is reported as 6 of 6.
With C=CCN1CCC(C(=O)OC)(c2ccccc2)CC1 the survivor count (dose: 400.0 mg/kg/injection, schedule: Q04DX003 (ip), vehicle: saline) was 0 of 6.
With CN(C)CCNCC(Cc1ccccc1)c1ccccc1 (stereo not drawn) the survivor count (dose: 200.0 mg/kg/injection, schedule: Q04DX002 (ip), vehicle: saline) was 1 of 3 and the survivor count (dose: 400.0 mg/kg/injection, schedule: Q04DX002 (ip), vehicle: saline) was 0 of 3.
COC(=O)C[N+]1(C)C2CCC1CC(Cl)C2 (stereo not drawn) was tested, and the survivor count [1] was 1 of 3 and the survivor count [4] was 0 of 3.
Cc1cc2c(cc1C)C(=O)C(N1CCN(C)CC1)CCC2 (stereo not drawn) was tested, and the survivor count [5] was 3 of 6 and the survivor count [3] was 0 of 6.
In the case of Cc1ccc(N=Nc2sc(N)nc2C)cc1, the survivor count [6] is reported as 1 of 6.
With c1ccc2c(c1)ccc1c[n+]3c4ccccc4ccc3n12 the survivor count (dose: 10.0 mg/kg/injection, schedule: Q04DX003 (ip), vehicle: saline) was 6 of 6, the survivor count (dose: 20.0 mg/kg/injection, schedule: Q04DX003 (ip), vehicle: saline) was 6 of 6 and the survivor count (dose: 40.0 mg/kg/injection, schedule: Q01DX001 (ip), vehicle: saline) was 2 of 6. For the same compound, the survivor count (dose: 75.0 mg/kg/injection, schedule: Q01DX001 (ip), vehicle: saline) was 0 of 6, the survivor count (dose: 150.0 mg/kg/injection, schedule: Q01DX001 (ip), vehicle: saline) was 0 of 6 and the survivor count [6] was 0 of 6.
With NC(N)=N/N=C/C=C/c1ccco1 the survivor count (dose: 60.0 mg/kg/injection, schedule: Q01DX Z (oral), vehicle: methylcellulose (MC)) was 3 of 6, the survivor count (dose: 120.0 mg/kg/injection, schedule: Q01DX Z (oral), vehicle: methylcellulose (MC)) was 3 of 6 and the survivor count (dose: 240.0 mg/kg/injection, schedule: Q01DX Z (oral), vehicle: methylcellulose (MC)) was 0 of 6. The survivor count (dose: 480.0 mg/kg/injection, schedule: Q01DX Z (oral), vehicle: methylcellulose (MC)) was 0 of 6.
c1nc(SC2CCCC2)c2[nH]cnc2n1 was tested, and the T/C (dose: 85.0 mg/kg/injection, schedule: Q01DX Z (oral), vehicle: carboxymethylcellulose (CMC)) was 131 % of control, the T/C (dose: 100.0 mg/kg/injection, schedule: Q01DX009 (ip), vehicle: carboxymethylcellulose (CMC)) was 129 % of control and the T/C (dose: 170.0 mg/kg/injection, schedule: Q01DX Z (ip), vehicle: carboxymethylcellulose (CMC)) was 140 % of control. The T/C (dose: 170.0 mg/kg/injection, schedule: Q01DX Z (oral), vehicle: carboxymethylcellulose (CMC)) was 149 % of control, the T/C (dose: 200.0 mg/kg/injection, schedule: Q01DX009 (ip), vehicle: carboxymethylcellulose (CMC)) was 127 % of control and the T/C (dose: 400.0 mg/kg/injection, schedule: Q01DX009 (ip), vehicle: carboxymethylcellulose (CMC)) was 129 % of control. For the same compound, the T/C (dose: 600.0 mg/kg/injection, schedule: Q01DX001 (ip), vehicle: carboxymethylcellulose (CMC)) was 130 % of control, the T/C (dose: 680.0 mg/kg/injection, schedule: Q01DX Z (oral), vehicle: carboxymethylcellulose (CMC)) was 137 % of control and the survivor count (dose: 800.0 mg/kg/injection, schedule: Q01DX009 (ip), vehicle: carboxymethylcellulose (CMC)) was 2 of 6.
OCC1(CO)COC(c2ccccc2)OC1 was tested, and the survivor count (dose: 200.0 mg/kg/injection, schedule: Q04DX003 (ip), vehicle: Klucel (hydroxypropylcellulose) (HPC)) was 1 of 6.
O=C(O)c1ccc(/C=N/NC(=S)Nc2cccc3cccnc23)cc1 was tested, and the survivor count (dose: 100.0 mg/kg/injection, schedule: Q01DX001 (ip), vehicle: saline) was 4 of 4.
CCOC(=O)c1cc2c(-c3ccccc3)c(-c3ccccc3)c(-c3ccccc3)c(-c3ccccc3)n2n1 was tested, and the survivor count [1] was 3 of 3.
For CCCCC(=O)N/N=C/c1ccccc1OC, the survivor count [4] was 0 of 4.
CC(N(N=O)c1ccccc1)S(=O)(=O)O (stereo not drawn) was tested, and the survivor count [2] was 6 of 6.
In the case of CCOC(=O)c1ccc(NC(=O)Nc2ccccc2OC)cc1, the survivor count (dose: 100.0 mg/kg/injection, schedule: Q04DX003 (ip), vehicle: saline with Tween-80) is reported as 6 of 6 and the survivor count (dose: 400.0 mg/kg/injection, schedule: Q04DX002 (ip), vehicle: saline with Tween-80) is reported as 6 of 6.
For Cc1cc(-c2ccc([N+](=O)[O-])cc2)cn1-c1ccccc1, the survivor count (dose: 200.0 mg/kg/injection, schedule: Q04DX002 (ip), vehicle: saline with Tween-80) was 3 of 3.
For CC(=O)NNc1nc(C)cs1, the survivor count [5] was 2 of 6 and the survivor count [3] was 0 of 6.
CSc1n[nH]c(=O)nc1SC was tested, and the survivor count [4] was 2 of 6.
For C=[CH][Sn]([CH]=C)([CH]=C)[O]C(C)=O, the survivor count (dose: 25.0 mg/kg/injection, schedule: Q01DX009 (ip), vehicle: Klucel (hydroxypropylcellulose) (HPC)) was 0 of 6, the survivor count (dose: 50.0 mg/kg/injection, schedule: Q04DX002 (ip), vehicle: Klucel (hydroxypropylcellulose) (HPC)) was 0 of 3 and the survivor count (dose: 100.0 mg/kg/injection, schedule: Q04DX002 (ip), vehicle: Klucel (hydroxypropylcellulose) (HPC)) was 1 of 3. The survivor count (dose: 200.0 mg/kg/injection, schedule: Q04DX002 (ip), vehicle: Klucel (hydroxypropylcellulose) (HPC)) was 1 of 3 and the survivor count (dose: 400.0 mg/kg/injection, schedule: Q04DX002 (ip), vehicle: Klucel (hydroxypropylcellulose) (HPC)) was 0 of 3.
CN(C)C(=S)[S][Sn]([CH3])([CH3])[CH3] was tested, and the survivor count (dose: 6.25 mg/kg/injection, schedule: Q01DX009 (ip), vehicle: saline) was 0 of 3, the survivor count (dose: 12.5 mg/kg/injection, schedule: Q01DX009 (ip), vehicle: saline) was 0 of 3 and the survivor count (dose: 25.0 mg/kg/injection, schedule: Q01DX009 (ip), vehicle: saline) was 0 of 3. For the same compound, the survivor count (dose: 100.0 mg/kg/injection, schedule: Q01DX009 (ip), vehicle: saline) was 0 of 3, the survivor count (dose: 200.0 mg/kg/injection, schedule: Q01DX009 (ip), vehicle: saline) was 0 of 3 and the survivor count [2] was 0 of 3.
